# Measured values published in the supplement of paper PMC8728848.
# This is one part of the list.
# Tests used:
# Assay in all cases: glycan array binding signal (z-score within array); higher = stronger binding
# Conditions in all cases: glycan notation: IUPAC condensed, linker removed
# [1] = biological target: Gal(b1-4)GlcNAc(b1-3)Gal(b1-4)GlcNAc(b1-2)[Gal(b1-4)GlcNAc(b1-3)Gal(b1-4)GlcNAc(b1-6)]Man(a1-6)[Gal(b1-4)GlcNAc(b1-3)Gal(b1-4)GlcNAc(b1-2)Man(a1-3)]Man(b1-4)GlcNAc(b1-4)GlcNAc
# In short: (§1)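 From the Consortium for Functional Glycomics database, 3228 arrays were curated, keeping only those whose protein sequence was available. Binding is given as a within-array Z-score averaged across arrays sharing a protein sequence and across linkers. Negative Z-scores can be read as non-binding.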
# [2] = biological target: Gal(b1-4)GlcNAc(b1-3)Gal(b1-4)GlcNAc(b1-2)[Gal(b1-4)GlcNAc(b1-3)Gal(b1-4)GlcNAc(b1-6)]Man(a1-6)[Gal(b1-4)GlcNAc(b1-3)Gal(b1-4)GlcNAc(b1-2)Man(a1-3)]Man(b1-4)GlcNAc(b1-4)[Fuc(a1-6)]GlcNAc
# In short: as §1
# [3] = biological target: Gal(b1-4)GlcNAc(b1-3)Gal(b1-4)GlcNAc(b1-3)Gal(b1-4)GlcNAc
# In short: as §1
# [4] = biological target: Gal(b1-4)GlcNAc(b1-3)Gal(b1-4)GlcNAc(b1-3)Gal(b1-4)GlcNAc(b1-2)Man(a1-3)[Gal(b1-4)GlcNAc(b1-3)Gal(b1-4)GlcNAc(b1-3)Gal(b1-4)GlcNAc(b1-2)Man(a1-6)]Man(b1-4)GlcNAc(b1-4)GlcNAc
# In short: as §1
# [5] = biological target: Gal(b1-4)GlcNAc(b1-3)Gal(b1-4)GlcNAc(b1-3)Gal(b1-4)GlcNAc(b1-2)Man(a1-3)[Gal(b1-4)GlcNAc(b1-3)Gal(b1-4)GlcNAc(b1-3)Gal(b1-4)GlcNAc(b1-2)Man(a1-6)]Man(b1-4)GlcNAc(b1-4)[Fuc(a1-6)]GlcNAc
# In short: as §1
# [6] = biological target: Gal(b1-4)GlcNAc(b1-3)Gal(b1-4)GlcNAc(b1-3)Gal(b1-4)GlcNAc(b1-2)[Gal(b1-4)GlcNAc(b1-3)Gal(b1-4)GlcNAc(b1-3)Gal(b1-4)GlcNAc(b1-6)]Man(a1-6)[Gal(b1-4)GlcNAc(b1-3)Gal(b1-4)GlcNAc(b1-3)Gal(b1-4)GlcNAc(b1-2)Man(a1-3)]Man(b1-4)GlcNAc(b1-4)[Fuc(a1-6)]GlcNAc
# In short: as §1
# [7] = biological target: Gal(b1-4)GlcNAc(b1-3)Gal(b1-4)GlcNAc(b1-3)Gal(b1-4)GlcNAc(b1-3)Gal(b1-4)GlcNAc(b1-2)Man(a1-3)[Gal(b1-4)GlcNAc(b1-3)Gal(b1-4)GlcNAc(b1-3)Gal(b1-4)GlcNAc(b1-3)Gal(b1-4)GlcNAc(b1-2)Man(a1-6)]Man(b1-4)GlcNAc(b1-4)GlcNAc
# In short: as §1
# [8] = biological target: Gal(b1-4)GlcNAc(b1-3)Gal(b1-4)GlcNAc(b1-3)Gal(b1-4)GlcNAc(b1-3)Gal(b1-4)GlcNAc(b1-2)Man(a1-3)[Gal(b1-4)GlcNAc(b1-3)Gal(b1-4)GlcNAc(b1-3)Gal(b1-4)GlcNAc(b1-3)Gal(b1-4)GlcNAc(b1-2)Man(a1-6)]Man(b1-4)GlcNAc(b1-4)[Fuc(a1-6)]GlcNAc
# In short: as §1
# [9] = biological target: Gal(b1-4)GlcNAc(b1-3)Gal(b1-4)GlcNAc(b1-3)Gal(b1-4)GlcNAc(b1-3)Gal(b1-4)GlcNAc(b1-2)[Gal(b1-4)GlcNAc(b1-3)Gal(b1-4)GlcNAc(b1-3)Gal(b1-4)GlcNAc(b1-3)Gal(b1-4)GlcNAc(b1-6)]Man(a1-6)[Gal(b1-4)GlcNAc(b1-3)Gal(b1-4)GlcNAc(b1-3)Gal(b1-4)GlcNAc(b1-3)Gal(b1-4)GlcNAc(b1-2)Man(a1-3)]Man(b1-4)GlcNAc(b1-4)[Fuc(a1-6)]GlcNAc
# In short: as §1
# [10] = biological target: Gal(b1-4)GlcNAc(b1-3)Gal(b1-4)GlcNAc(b1-3)Gal(b1-4)GlcNAc(b1-3)Gal(b1-4)GlcNAc(b1-3)Gal(b1-4)GlcNAc(b1-2)Man(a1-3)[Gal(b1-4)GlcNAc(b1-3)Gal(b1-4)GlcNAc(b1-3)Gal(b1-4)GlcNAc(b1-3)Gal(b1-4)GlcNAc(b1-3)Gal(b1-4)GlcNAc(b1-2)Man(a1-6)]Man(b1-4)GlcNAc(b1-4)GlcNAc
# In short: as §1
# [11] = biological target: Gal(b1-4)GlcNAc(b1-3)Gal(b1-4)GlcNAc(b1-3)Gal(b1-4)GlcNAc(b1-3)Gal(b1-4)GlcNAc(b1-3)Gal(b1-4)GlcNAc(b1-2)Man(a1-3)[Gal(b1-4)GlcNAc(b1-3)Gal(b1-4)GlcNAc(b1-3)Gal(b1-4)GlcNAc(b1-3)Gal(b1-4)GlcNAc(b1-3)Gal(b1-4)GlcNAc(b1-2)Man(a1-6)]Man(b1-4)GlcNAc(b1-4)[Fuc(a1-6)]GlcNAc
# In short: as §1
# [12] = biological target: Gal(b1-4)GlcNAc(b1-3)Gal(b1-4)GlcNAc(b1-3)Gal(b1-4)GlcNAc(b1-3)Gal(b1-4)GlcNAc(b1-3)Gal(b1-4)GlcNAc(b1-2)[Gal(b1-4)GlcNAc(b1-3)Gal(b1-4)GlcNAc(b1-3)Gal(b1-4)GlcNAc(b1-3)Gal(b1-4)GlcNAc(b1-3)Gal(b1-4)GlcNAc(b1-6)]Man(a1-6)[Gal(b1-4)GlcNAc(b1-3)Gal(b1-4)GlcNAc(b1-3)Gal(b1-4)GlcNAc(b1-3)Gal(b1-4)GlcNAc(b1-3)Gal(b1-4)GlcNAc(b1-2)Man(a1-3)]Man(b1-4)GlcNAc(b1-4)[Fuc(a1-6)]GlcNAc
# In short: as §1
# [13] = biological target: Gal(b1-4)GlcNAc(b1-3)Gal(b1-4)GlcNAc(b1-3)Gal(b1-4)GlcNAc(b1-3)Gal(b1-4)GlcNAc(b1-3)Gal(b1-4)GlcNAc(b1-3)Gal(b1-4)GlcNAc(b1-2)Man(a1-3)[Gal(b1-4)GlcNAc(b1-3)Gal(b1-4)GlcNAc(b1-3)Gal(b1-4)GlcNAc(b1-3)Gal(b1-4)GlcNAc(b1-3)Gal(b1-4)GlcNAc(b1-3)Gal(b1-4)GlcNAc(b1-2)Man(a1-6)]Man(b1-4)GlcNAc(b1-4)GlcNAc
# In short: as §1
# [14] = biological target: Gal(b1-4)GlcNAc(b1-3)Gal(b1-4)GlcNAc(b1-3)GalNAc
# In short: as §1
# [15] = biological target: Gal(b1-4)GlcNAc(b1-3)Gal(b1-4)GlcNAc(b1-3)[Gal(b1-4)GlcNAc(b1-3)Gal(b1-4)GlcNAc(b1-6)]GalNAc
# In short: as §1
# [16] = biological target: Gal(b1-4)GlcNAc(b1-3)Gal(b1-4)GlcNAc(b1-6)[Gal(b1-3)]GalNAc
# In short: as §1
# [17] = biological target: Gal(b1-4)GlcNAc(b1-3)Gal(b1-4)[Fuc(a1-3)]GlcNAc(b1-3)Gal(b1-4)[Fuc(a1-3)]GlcNAc
# In short: as §1
# [18] = biological target: Gal(b1-4)GlcNAc(b1-3)GalNAc
# In short: as §1
# [19] = biological target: Gal(b1-4)GlcNAc(b1-3)[Fuc(a1-3)GlcNAc(b1-6)]Gal(b1-4)Glc
# In short: as §1
# [20] = biological target: Gal(b1-4)GlcNAc(b1-3)[Gal(b1-4)GlcNAc(b1-6)]Gal(b1-4)GlcNAc
# In short: as §1
# [21] = biological target: Gal(b1-4)GlcNAc(b1-3)[GlcNAc(b1-6)]Gal(b1-4)GlcNAc
# In short: as §1
# [22] = biological target: Gal(b1-4)GlcNAc(b1-6)Gal(b1-4)GlcNAc
# In short: as §1
# [23] = biological target: Gal(b1-4)GlcNAc(b1-6)GalNAc
# In short: as §1
# [24] = biological target: Gal(b1-4)GlcNAc(b1-6)[Gal(b1-3)]GalNAc
# In short: as §1
# [25] = biological target: Gal(b1-4)GlcNAc(b1-6)[Gal(b1-4)GlcNAc(b1-3)]GalNAc
# In short: as §1
# Gal(b1-4)GlcNAc6P = biological target: Gal(b1-4)GlcNAc6P
# In short: as §1
# Gal(b1-6)Gal = biological target: Gal(b1-6)Gal
# In short: as §1
# Gal3S(b1-3)GalNAc = biological target: Gal3S(b1-3)GalNAc
# In short: as §1
# Gal3S(b1-3)GlcNAc = biological target: Gal3S(b1-3)GlcNAc
# In short: as §1
# [26] = biological target: Gal3S(b1-3)[Fuc(a1-4)]GlcNAc
# In short: as §1
binder,measurement,setting,value
PX14343F-bfa-562-20-562 (Bacteroides fragilis) (protein) CDDFLDSFPQDTVTNENFWKSKEDADKVLVDIYASLLPKDAIFFDEAMSDNAYLVWDWWGGAQQVANGSYTTSGEIPTNRWNGSYEVIRKCWFLLEGIEKIEDISEQDKNKIIGETYFMLAYNYYVLTSYFGDVPLVTKTLAIPESKQLVRTPKAEVVDYAINKLKEAAVMLEGLSQEKGRVTADACRFLIARMYLYNGDYSNVLETVKLLEGKYQLYREGDTPYEDLFSGVAENSCEVILSVVCDKRVGEIYTSHGGNGIMLLKGITGEDPYRGVTPSGSLVDAYPMADGRLIHEAGSSYDPKKPYEGRDPRFYQSIVYPTGQIKYLDVETGTVKERLYDPEDPTTVPEHQYNYSQPSATGYMWNKYIDYSVYAMNSVWDCTNDIIVFRYADVLLMKAEALLQTKGESAKEEVCNLIDQLRDRCSCGRVHRENYNSKDELMELLKNERRIELANEGLRYMDLIRWKDAEKNTIVTGVGLTGQMYGAYMRKDGVGKDDKTVDVDNTPRRYIETRYFNASKGYLFPIPQKERDLNPNLTQNPNW,glycan array binding signal (z-score),[1],1.2
same,glycan array binding signal (z-score),[2],1.44
same,glycan array binding signal (z-score),[3],-0.468
same,glycan array binding signal (z-score),[4],0.911
same,glycan array binding signal (z-score),[5],-0.378
same,glycan array binding signal (z-score),[6],0.566
same,glycan array binding signal (z-score),[7],0.79
same,glycan array binding signal (z-score),[8],-0.007
same,glycan array binding signal (z-score),[9],1.04
same,glycan array binding signal (z-score),[10],0.735
same,glycan array binding signal (z-score),[11],0.733
same,glycan array binding signal (z-score),[12],0.714
same,glycan array binding signal (z-score),[13],0.274
same,glycan array binding signal (z-score),[14],-0.25
same,glycan array binding signal (z-score),[15],0.057
same,glycan array binding signal (z-score),[16],-0.379
same,glycan array binding signal (z-score),[17],-0.059
same,glycan array binding signal (z-score),[18],-0.276
same,glycan array binding signal (z-score),[19],1.78
same,glycan array binding signal (z-score),[20],-0.178
same,glycan array binding signal (z-score),[21],-0.487
same,glycan array binding signal (z-score),[22],-0.487
same,glycan array binding signal (z-score),[23],0.45
same,glycan array binding signal (z-score),[24],-0.082
same,glycan array binding signal (z-score),[25],-0.149
same,glycan array binding signal (z-score),Gal(b1-4)GlcNAc6P,0.108
same,glycan array binding signal (z-score),Gal(b1-6)Gal,-0.114
same,glycan array binding signal (z-score),Gal3S(b1-3)GalNAc,-0.168
same,glycan array binding signal (z-score),Gal3S(b1-3)GlcNAc,-0.276
same,glycan array binding signal (z-score),[26],-0.53

# An excerpt taken from the entries so far, as a working copy:
binder,measurement,setting,value
PX14343F-bfa-562-20-562 (Bacteroides fragilis) (protein) CDDFLDSFPQDTVTNENFWKSKEDADKVLVDIYASLLPKDAIFFDEAMSDNAYLVWDWWGGAQQVANGSYTTSGEIPTNRWNGSYEVIRKCWFLLEGIEKIEDISEQDKNKIIGETYFMLAYNYYVLTSYFGDVPLVTKTLAIPESKQLVRTPKAEVVDYAINKLKEAAVMLEGLSQEKGRVTADACRFLIARMYLYNGDYSNVLETVKLLEGKYQLYREGDTPYEDLFSGVAENSCEVILSVVCDKRVGEIYTSHGGNGIMLLKGITGEDPYRGVTPSGSLVDAYPMADGRLIHEAGSSYDPKKPYEGRDPRFYQSIVYPTGQIKYLDVETGTVKERLYDPEDPTTVPEHQYNYSQPSATGYMWNKYIDYSVYAMNSVWDCTNDIIVFRYADVLLMKAEALLQTKGESAKEEVCNLIDQLRDRCSCGRVHRENYNSKDELMELLKNERRIELANEGLRYMDLIRWKDAEKNTIVTGVGLTGQMYGAYMRKDGVGKDDKTVDVDNTPRRYIETRYFNASKGYLFPIPQKERDLNPNLTQNPNW,glycan array binding signal (z-score),[23],0.45
same,glycan array binding signal (z-score),[24],-0.082
